Laboratory results: paper doi:10.1101/2021.04.24.441265
For at least one entry, the source does not settle the construct or the ends of the probe. At least one result comes from cells or an extract, where the contact may be indirect.

Protein sequences, listed by entry. Tags and fused reporters are not part of them. Lines headed by an entry give the natural chain unless they say otherwise; changes in a name come on top.
UniProt P28033: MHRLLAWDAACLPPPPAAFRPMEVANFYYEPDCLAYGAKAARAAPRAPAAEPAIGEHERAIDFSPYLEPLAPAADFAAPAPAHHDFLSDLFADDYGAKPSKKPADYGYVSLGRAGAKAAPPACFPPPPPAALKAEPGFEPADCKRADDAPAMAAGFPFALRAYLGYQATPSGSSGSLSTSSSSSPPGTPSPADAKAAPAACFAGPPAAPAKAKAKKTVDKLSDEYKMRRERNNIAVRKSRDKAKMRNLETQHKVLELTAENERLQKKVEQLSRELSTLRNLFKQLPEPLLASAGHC

Columns and labels:
Test in all cases: EMSA supershift
[1] = target: C/EBPδ (RAW264.7 nuclear extract) (mouse (RAW264.7 macrophages)) (UniProt Q00322); settings: LPS-stimulated extract, present to a certain extent; protein in an extract
[2] = target: C/EBPβ (BMDM nuclear extract) (mouse (primary BMDM)) (UniProt P28033); settings: LPS-stimulated extract; protein in an extract
[3] = target: C/EBPδ (BMDM nuclear extract) (mouse (primary BMDM)) (UniProt Q00322); settings: LPS-stimulated extract, minor extent; protein in an extract
[4] = target: C/EBPβ (RAW264.7 nuclear extract) (mouse (RAW264.7 macrophages)) (UniProt P28033); settings: LPS-stimulated extract; protein in an extract

Measured: binding result

TCAGGTACTTCATCTTACGTCACCTAGT / TCAGACTAGGTGACGTAAGATGAAGTAC [half-CRE•C/EBP_Il36A EMSA probe, unmethylated]
binds: all assays above
